The supplement of paper PMC8256030
Where “and” joins values, the source holds several entries; their conditions need not be identical. Equal entries are not always repeated. The list shows a part of the results. This data set is noisy: repeats of one test often differ as much as different tests do.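 HEK293T cells were given each compound shortly before transfection with a reporter in which red mCherry is followed by the SARS-CoV-2 frameshift element and then GFP in the −1 frame, so GFP appears only after frameshifting.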

Experiments:
[1] = system: SARS-CoV-2 -1 PRF reporter mCherry-FSE-GFP(-1); experiment: mCherry (red) intensity as percent of control; higher = higher upstream reporter expression; conditions: 10 µM; 24 h; HEK293T
[2] = system: SARS-CoV-2 -1 PRF reporter mCherry-FSE-GFP(-1); experiment: percent effect, decrease of GFP/mCherry ratio (-1 PRF reporter) relative to controls; higher = stronger frameshift inhibition; conditions: 10 µM; 24 h; HEK293T

| Structure (SMILES) | mCherry [1] | percent effect [2] |
| --- | --- | --- |
| CCCCOc1cc(C(=O)OCCN(CC)CC)ccc1N | 98.4% | -4.42% |
| CC[C@H]1OC(=O)[C@H](C)[C@@H](O[C@H]2C[C@@](C)(OC)[C@@H](O)[C@H](C)O2)[C@H](C)[C@@H](O[C@@H]2O[C@H](C)C[C@H](N(C)C)[C@H]2O)[C@](C)(O)C[C@@H](C)C(=O)[C@H](C)[C@@H](O)[C@H]1C [berythromycin] | 80.2% | -4.99% |
| CC1=C(/C=C/C(C)=C/C=C/C(C)=C/C(=O)Nc2ccc(O)cc2)C(C)(C)CCC1 [fenretinide] | 18.7% | -4.75% |
| CC(C)CCC(=O)CC1c2ccccc2C(=O)N1c1ccc2ccc(Cl)nc2n1 (configuration not stated) [pagoclone] | 92.8% | 1.22% |
| O=C(CCCN1CCC(O)(c2ccc(Cl)cc2)CC1)c1ccc(F)cc1 [haloperidol] | 94.5% and 105% | -4.31% and -1.61% |
| CC(C)C(=O)OCC(=O)[C@@]12O[C@H](C3CCCCC3)O[C@@H]1C[C@H]1[C@@H]3CCC4=CC(=O)C=C[C@]4(C)[C@H]3[C@@H](O)C[C@@]12C [Ciclesonide] | 90.8% | -0.133% |
| O=C(O)c1cc2cc(Cc3cccnc3)ccc2o1 [furegrelate] | 117% | -4.49% |
| CCC(=O)O[C@H](CC(=O)O)C[N+](C)(C)C | 111% | -6.29% |
| O=C(O)c1ccc(S(=O)(=O)N(Cl)Cl)cc1 [halazone] | 119% | -16.6% |
| CNCC[C@H](Oc1cccc2ccccc12)c1cccs1 [duloxetine] | 122% | -4.75% |
| CN1C(=O)CC(c2ccccc2)C1=O (configuration not stated) [phensuximide] | 141% | -0.146% |
| Cc1cc(C(=O)NCCc2ccc(S(=O)(=O)NC(=O)NN3CCCCCC3)cc2)no1 [glisoxepide] | 67.9% | -1.44% |
| CC(C)(C#N)c1cc(Cn2cncn2)cc(C(C)(C)C#N)c1 [anastrozole] | 111% and 97.5% | -2.36% and 0.871% |
| Cc1ccc(=O)n(-c2ccccc2)c1 [pirfenidone] | 111% | -0.706% |
| Nc1ccc(S(=O)(=O)Nc2ncccn2)cc1 [sulfadiazine sodium] | 94.9% | 0.806% |
| CCC(CC)[C@H](NC(C)=O)[C@@H]1[C@H](O)[C@@H](C(=O)O)C[C@H]1NC(=N)N [Peramivir] | 81.7% | -4.81% |
| COc1nc(N)nc2c1ncn2[C@@H]1O[C@H](CO)[C@@H](O)[C@@H]1O [nelarabine] | 103% | -1.23% |
| O=C(OCc1ccccc1)c1ccccc1 | 99.9% | -2.77% |
| C[C@]12CCC(=O)C=C1CC[C@@H]1[C@@H]2[C@@H](O)C[C@@]2(C)[C@H]1CC[C@]2(O)C(=O)COC(=O)CCC(=O)O | 112% | -2.58% |
| Cc1cc2nc3c(=O)[nH]c(=O)nc-3n(C[C@H](O)[C@H](O)[C@H](O)CO)c2cc1C [Vitamin B2] | 104% and 121% | -23.7% and -22.2% |
| CSc1ccc2c(c1)C(N1CCN(C)CC1)Cc1ccccc1S2 (configuration not stated) | 128% | 2.57% |
| CC12CCC(CC1)C(C)(C)O2 | 92.6% | -0.669% |
| C=CCc1ccc(O)c(OC)c1 | 124% | -1.58% |
| CCn1cc(C(=O)O)c(=O)c2cnc(N3CCCC3)nc21 [piromidic acid] | 94.5% | -3.35% |

Individual results from the entries so far.
In mCherry [1], CC1=C(/C=C/C(C)=C/C=C/C(C)=C/C(=O)Nc2ccc(O)cc2)C(C)(C)CCC1 [fenretinide] is entered as 18.7%
In mCherry [1], CC(C)CCC(=O)CC1c2ccccc2C(=O)N1c1ccc2ccc(Cl)nc2n1 (configuration not stated) [pagoclone] is entered as 92.8%

Next records follow:

| Structure (SMILES) | mCherry [1] | percent effect [2] |
| --- | --- | --- |
| CCC(C(=O)O)c1ccc(N2Cc3ccccc3C2=O)cc1 (configuration not stated) [indobufen] | 77.8% | -5.59% |
| COC(F)(F)C(Cl)Cl [methoxyflurane] | 108% | 0.00952% |
| CCOC(=O)[C@H](CCc1ccccc1)N[C@@H](C)C(=O)N(CC(=O)O)C1Cc2ccccc2C1 [delapril] | 90.2% | -5.35% |
| NC(=O)c1ncn([C@@H]2O[C@H](CO)[C@@H](O)[C@H]2O)c1N [acadesine] | 100% | 1.02% |
| Cc1onc(-c2c(Cl)cccc2Cl)c1C(=O)N[C@@H]1C(=O)N2[C@@H]1SC(C)(C)[C@@H]2C(=O)O | 124% | -2.31% |
| OC(CNCC(O)C1CCc2cc(F)ccc2O1)C1CCc2cc(F)ccc2O1 (configuration not stated) [nebivolol] | 153% and 146% | -6.55% and -3.99% |
| NCCCCC(N)C(=O)O (configuration not stated) | 106% and 116% | -2.44% and -0.263% |
| Nc1ccc(S(N)(=O)=O)cc1 [sulfanilamide] | 101% | -0.643% |
| O=[N+]([O-])c1cncn1CCN1CCOCC1 [nimorazole] | 121% | -3.69% |
| N=C(N)c1ccc(OCCCOc2ccc(C(=N)N)cc2Br)c(Br)c1 [dibrompropamidine] | 78.5% | -4.65% |
| C(=C\c1ccccc1)/CN1CCN(C(c2ccccc2)c2ccccc2)CC1 [Stugeron] | 110% | -2.77% |
| CC1(C)[C@@H](OC(=O)CCC(=O)O)CC[C@]2(C)[C@H]3C(=O)C=C4[C@@H]5C[C@@](C)(C(=O)O)CC[C@]5(C)CC[C@@]4(C)[C@]3(C)CC[C@@H]12 | 99% | -2.41% |
| CCOC(=O)Nc1ccc2c(c1)N(C(=O)CCN1CCOCC1)c1ccccc1S2 [moracizine] | 108% | -5.36% |
| O=C(O)c1ccc(-n2nc(-c3ccccc3O)nc2-c2ccccc2O)cc1 [Exjade] | 102% | -2.23% |
| Oc1ccc(C2CNCCc3c2cc(O)c(O)c3Cl)cc1 (configuration not stated) | 53.8% | -1.83% |
| CC1(C)S[C@@H]2[C@H](NC(=O)C(C(=O)O)c3ccccc3)C(=O)N2[C@H]1C(=O)O (some centres not stated) | 95.9% | 1.18% |
| NC(N)=O | 110% | -8.24% |
| N/C(=N\C(=O)c1nc(Cl)c(N)nc1N)NCc1ccccc1 [Benzamil] | 67.8% | -12.8% |
| Nc1c(CC(=O)O)cccc1C(=O)c1ccc(Br)cc1 [Xibrom] | 109% | -4.09% |
| CC(=O)OC/C=C(C)/C=C/C=C(C)/C=C/C1=C(C)CCCC1(C)C | 119% | -3.34% |
| COc1cc2nc(N3CCN(C(=O)C4COc5ccccc5O4)CC3)nc(N)c2cc1OC (configuration not stated) [doxazosin] | 61.8% and 85.1% | -5.6% and -1.91% |
| CN[C@H](CC(C)C)C(=O)N[C@H]1C(=O)N[C@@H](CC(N)=O)C(=O)N[C@H]2C(=O)N[C@H]3C(=O)N[C@H](C(=O)N[C@H](C(=O)O)c4cc(O)cc(O)c4-c4cc3ccc4O)[C@H](O)c3ccc(c(Cl)c3)Oc3cc2cc(c3O[C@@H]2O[C@H](CO)[C@@H](O)[C@H](O)[C@H]2O[C@H]2C[C@](C)(N)[C@H](O)[C@H](C)O2)Oc2ccc(cc2Cl)[C@H]1O | 118% | -12.8% |
| CC(C)(Oc1ccc(C(O)c2ccc(Cl)cc2)cc1)C(=O)O (configuration not stated) [fenirofibrate] | 70.5% | 0.598% |
| CC(=O)[C@@]1(O)CC[C@H]2[C@@H]3CCC4=CC(=O)CC[C@]4(C)[C@H]3CC[C@@]21C [hydroxyprogesterone] | 106% | 2.27% |

| Structure (SMILES) | mCherry [1] | percent effect [2] |
| --- | --- | --- |
| O=C(OCCN1CCN(c2cccc(C(F)(F)F)c2)CC1)c1ccccc1Nc1ccnc2cc(C(F)(F)F)ccc12 [antrafenine] | 91.7% | -4.57% |
| C=C1CCN([C@H](C)[C@](O)(Cn2cncn2)c2ccc(F)cc2F)CC1 [Efinaconazole] | 102% | -0.113% |
| CC(C(=O)O)c1ccc(N2Cc3ccccc3C2=O)cc1 (configuration not stated) [indoprofen] | 98% | -2.55% |
| CS(=O)(=O)c1ccc(-c2cn3ccccc3n2)cc1 [zolimidine] | 85.6% | -2.53% |
| CN(C)CCOC(=O)C(c1ccccc1)C1(O)CCCC1 (configuration not stated) [cyclopentolate] | 103% | -4.28% |
| CCN(CC)CCNC(=O)c1ccc(N)cc1 [procainamide] | 90% and 87.5% | -2.97% and -0.104% |
| Cc1nccn1CC1CCc2c(c3ccccc3n2C)C1=O (configuration not stated) [ondansetron] | 72.5% | -3.21% |
| CS(=O)(=O)OCCCCOS(C)(=O)=O [busulfan] | 92.8% | -3.89% |
| C[C@@H]1O[C@@H](OC[C@H]2O[C@@H](Oc3c(-c4ccc(OCCO)c(OCCO)c4)oc4cc(OCCO)cc(O)c4c3=O)[C@H](O)[C@@H](O)[C@@H]2O)[C@H](O)[C@H](O)[C@H]1O | 107% | -5.35% |
| O=C(O)c1cc(/N=N/c2ccc(O)c(C(=O)O)c2)ccc1O | 117% | -6.09% |
| COc1ccc(/C=N/NC(=O)c2ccncc2)cc1OC [verazide] | 74.3% | -11.6% |
| CC(C)(C)C(=O)NCCCC(=O)O [pivagabine] | 98.3% | -2.9% |
| CCOc1ccccc1OCCN[C@H](C)Cc1ccc(OC)c(S(N)(=O)=O)c1 [tamsulosin] | 93.4% and 102% | -1.16% and -13.1% |
| CCCCc1nc(Cl)c(CO)n1Cc1ccc(-c2ccccc2-c2nnn[nH]2)cc1 [Losartan] | 88% | -3.57% |
| CC(=O)Nc1c(I)cc(I)c(C(=O)O)c1I [sodium acetrizoate] | 70.7% | -8.96% |
| CC1CC(OC(=O)C(O)c2ccccc2)CC(C)(C)N1C (configuration not stated) | 131% | -0.385% |
| Cc1[nH+]cc(COP(=O)([O-])[O-])c(CN(CCN(CC(=O)[O-])Cc2c(COP(=O)([O-])O)c[nH+]c(C)c2O)CC(=O)[O-])c1O.[Mn].[Na+].[Na+].[Na+] | 114% | -0.311% |
| CC1CS(=O)(=O)CCN1/N=C/c1ccc([N+](=O)[O-])o1 (configuration not stated) [nifurtimox] | 92.3% | -7.4% |
| CSCC[C@H](NC(=O)[C@H](Cc1c[nH]c2ccccc12)NC(=O)CCNC(=O)OC(C)(C)C)C(=O)N[C@@H](CC(=O)O)C(=O)N[C@@H](Cc1ccccc1)C(N)=O [pentagastrin] | 80.9% | -9.33% |
| O=C(Nc1ccc(C(=O)O)c(O)c1)c1ccccc1 [calcium benzamidosalicylate] | 88.7% | -4.72% |
| CN1c2cc(O)c(N=NC(N)=O)cc2CC1S(=O)(=O)O (configuration not stated) [carbazochrome sodium sulfonate] | 88.8% | -8.54% |
| O=C1c2ccccc2S(=O)(=O)N1CCCN1CCN(c2ncccn2)CC1 [revospirone] | 75% | 2.84% |
| CC1(C)S[C@@H]2[C@H](NC(=O)[C@H](N)c3ccc(O)cc3)C(=O)N2[C@H]1C(=O)O [amoxicillin] | 74.6% | -3.54% |

Four structures out of the list, sorted by count of non-hydrogen atoms, rising.

| Structure (SMILES) | mCherry [1] | percent effect [2] |
| --- | --- | --- |
| CC(C)(C)C(=O)NCCCC(=O)O [pivagabine] | 98.3% | -2.9% |
| CCN(CC)CCNC(=O)c1ccc(N)cc1 [procainamide] | 90% and 87.5% | -2.97% and -0.104% |
| Cc1nccn1CC1CCc2c(c3ccccc3n2C)C1=O (configuration not stated) [ondansetron] | 72.5% | -3.21% |
| C=C1CCN([C@H](C)[C@](O)(Cn2cncn2)c2ccc(F)cc2F)CC1 [Efinaconazole] | 102% | -0.113% |
